# Measurements: patent US5349127A, “Expression of herbicide metabolizing cytochromes P450” (priority 1992, dated 1994)
# At least one structure is not confirmed: it was looked up by name or label, or the drawing left a doubt.
# Experiments:
# [1] = tested on: Tobacco plants (Nicotiana tabactum cv. Wisconsin 38); test: Foliar spray of 10015 on P450SU1 transformed tobacco plants (Example 21); assay type: in vivo, Nicotiana tabacum; settings: for damage after foliar application: 1 g/ha
# From the text: Tobacco plants (Nicotiana tabactum cv. Wisconsin 38) transformed with plasmids pAGS112, pSU18, pSSU-SU111, pCab-SU121 or pCab-SU131 (singly) and accumulating the P450SU1 protein were identified by Western blot analysis. Seed arising from the self pollination of individual primary transformants designated AGS112, SU18.8, SU18.14, SSU-SU111.5, […], and Cab-SU131.5 gave rise to the plants described in this Example. The progeny of primary AGS112 and Cab-SU121.5 transformants segregated for single copy kanamycin resistance. In contrast, the progeny of the plants transformed with plasmids containing P450SU1 (other than Cab-SU121.5) segregated for multicopy kanamycin resistance. Thus, most plants containing the gene encoding P450SU1 and sprayed with 10015 in this Example likely contained at least one, and in many cases multiple, copies of P450SU1, while very few individuals likely carried no copies of the gene encoding P450SU1.
# Seed from transformed and nontransformed tobacco plants was germinated in a commercial potting mix Metro-Mix® 350 for 25 days. Individual plants were then transferred to 4 inch×4 inch pots containing Metro Mix® 350 and were allowed to grow in the greenhouse for an additional 22 days at which time most plants contained 4-5 fully expanded leaves. A developmentally uniform population of plants was selected from among these transplants and the individual plants were then sprayed with a carrier solution of AGWT (90.2% Acetone: 4.8% Glycerol: 4.8% Water: 0.24% Tween 20 by volume) containing sulfonylurea compound 10015 at concentrations of 1,4, or 16 grams/hectare (g/ha). The sprayed plants were returned to the greenhouse and rated for injury 22 days later.
# [2] = tested on: Arabidopsis thaliana seedlings; test: Seed germination assay of transgenic Arabidopsis (Example 26); assay type: in vivo
# Procedure: T2 seed was harvested from selected putative transformants and sown on GM medium containing 50 mg/l kanamycin and that containing 5 ppb 10015. Plates were sealed with filter tape, cold treated for 2 or more days at 4° C., and then incubated for 10 to 20 days at 23° C. under constant illumination as described above. Seedlings were scored as resistant (green, true leaves develop) and sensitive (no true leaves develop). […] The percent of resistant seedlings is inversely proportional with the two selections. Kanamycin is a positive selection for those seedlings that carry the foreign DNA.
# Selected T2 seedlings that were kanamycin resistant were transplanted to soil and were grown to maturity at 21° C. daytime (14 hours) 18° C. nighttime (10 hours) at 65-80% relative humidity. T3 seed was collected, sterilized, and germinated on GM medium containing 50 mg/l kanamycin and that containing 5 ppb 10015. Plates were sealed with filter tape, cold treated for 2 or more days at 4° C., and then incubated for 10 to 20 days at 23° C. under constant illumination as described above. Two of the six plants produced seed that was 100% resistant to kanamycin and 100% sensitive to 10015; they are homozygous for the inserted DNA. The other four parents are heterozygous and show an inverse proportion of kanamycin and 10015 resistant seedlings. […] Therefore, seedlings expressing the P450SU1 gene can be negatively selected.
# Germination assays of homozygous seed on various concentrations of 10015 were performed to assay the relative sensitivity to 10015 produced by the three different promoters and between independent transformants. Seed was sterilized, sown on GM medium with 0, 0.5, 1, 2, 5, 10 and 20 ppb 10015, incubated, and scored as described above. In addition, seedlings are rated on a scale of one to three for the amount of growth.
# Over 500 seed that are homozygous for the P450SU1 coding region were sown on the same plates. The plates were sealed, cold-treated, and incubated as previously described. […] Wild type seedlings were unaffected by the dying transformed seedlings. […]
# [3] = tested on: transgenic Nicotiana tabacum cv. Xanthi plants; test: In vitro pollen germination after spraying 10015 on tobacco with anther-specific P450SU1 (Example 28); assay type: in vivo; settings: for pollen germination in vitro: 100 g/ha
# Procedure: Application of compound 10015 was as follows. The tapetal cells of the anther surround the developing pollen and are instrumental in supporting the development of mature pollen. Thus production of a toxin in the tapetal cells was expected to disrupt the development of normal mature pollen. The nontoxic compound 10015 was sprayed onto flowering transgenic plants that had anther-specific expression of P450SU1 mRNA. […] The 10015 was first dissolved in up to 0.8 ml of 0.01 N ammonium hydroxide and then diluted into AGWT (90.2% Acetone:4.8% Glycerol:4.8% Water:0.24% Tween 20 by volume). Little effect was seen when rates of less than 32 g/ha were applied. At 32 g/ha and above, effects were seen on the ability of pollen to germinate in vitro. Newly opened buds were collected at time intervals between four and 23 days after spraying. The anthers were removed and pollen was brushed into Brewbaker and Kwak medium (15% sucrose, 200 ppm calcium nitrate, 100 ppm boric acid). Growth of tubes from the pollen, indicating germination, was assessed after four hours of incubation by microscopic observation.
structure (smiles),measurement,setting,value
COc1cc(OC)nc(NC(=O)NS(=O)(=O)c2cccc3c2S(=O)(=O)N(C(C)C)C3)n1 [compound 10015],damage after foliar application,"[1]; SSU-SU111.5, Cab-SU111.8, Cab-SU121.5 and Cab-SU131.5",severely injured
same,damage after foliar application,[1]; nontransformed plants (W38) and progeny of pAGS112 plants,minimal damage
same,injury,"[1]; 16 g/ha, both transformed and non-transformed plants",extensively injured
same,effect on wild type seedlings sown among homozygous P450SU1 seed,[2]; 10 ppb 10015,unaffected
same,tissue-selective effect on seedlings,"[2]; T3 seedlings, P450SU1 under cab promoter, 5 ppb 10015",exhibited root growth but shoot growth was inhibited
same,number of resistant seedlings,"[2]; greater than 10,000 seed of a homozygous Cab-SU111 plant, 10 ppb 10015",eighteen
same,pollen germination in vitro,"[3]; plant 28A, 7-14 days after treatment",no pollen germination
same,pollen germination in vitro,"[3]; plant 38A, 7-11 days",no pollen germination
same,plants with reduced pollen viability in vitro,[3]; plants with anther-specific expression of A-T-SU1,seven plants out of the 10 plants tested
same,plants with almost complete absence of pollen viability,"[3]; plants with anther-specific expression of A-T-SU1, a week or more",three plants
same,effect on pollen germination,[3]; rates of less than 32 g/ha,Little effect
same,effect on pollen viability,[3]; transgenic plants expressing the A-SU1 gene,two plants showed only slight reduction in pollen viability
